Source: US20120131849A1, “METHOD FOR STORAGE OF SEEDS” (priority 2009, published 2012)
Some results were stated once for a whole list of compounds, not compound by compound.

Tested on: seeds of Eustoma grandiflorum “F1 Mellow Violet”
Experiment: Germination rate test after storage of seeds in oily substance
Format: in vivo
Conditions: irrespective of the storage temperature and the storage period
Description: After a predetermined amount of culture soil (Metro-Mix350, manufactured by Scotts) was filled into a cell tray, 100 seeds were sown, and water sprinkling was performed as necessary. With regard to the light conditions, suitable conditions for each seed type were adopted. After sowing, the number of germinated seeds was measured over time, and the number of germinated seeds with respect to the 100 seeds was calculated as a germination rate (%).
The germination rate (%) obtained 10 days after sowing was particularly evaluated as germination vigor (%). The germination vigor is a measure of germination speed or whether germination is uniform, and higher germination vigor values mean faster and more uniform germination. In the case of seeds of a plant that takes long time to germinate, the number of days after sowing was changed as appropriate to obtain the germination vigor.
The germination rate (%) obtained 14 days after sowing was particularly evaluated as the final germination rate (%). In the case of seeds of a plant that takes long time to germinate, the number of days after sowing was changed as appropriate to obtain the final germination rate. […]
First, 0.01 g of seeds of Eustoma grandiflorum “F1 Mellow Violet” was placed in each of 1.5 mL test tubes. Subsequently, 1.5 mL of a medium-chain triglyceride was gently poured into each test tube, which was then capped. The seeds were completely immersed in the medium-chain triglyceride. The test tubes were stored at 4° C. or 25° C. in darkness for 6 months, 18 months, or 36 months, and afterward, the seeds were removed from the test tubes, and a germination rate test was performed. A germination rate test for Eustoma grandiflorum “F1 Mellow Violet” seeds immediately after purchasing was also performed at the same time.

| SMILES | final germination rate (14 days after sowing), compared with seeds not immersed | germination vigor (10 days after sowing), compared with seeds not immersed |
| --- | --- | --- |
| CCCC(=O)O [Example 10, butanoic acid] | higher than those of the seeds that had not been immersed in any oily substance | higher than those of the seeds that had not been immersed in any oily substance |
| CCCCCCCC(=O)O [Example 11, octanoic acid] | higher than those of the seeds that had not been immersed in any oily substance | higher than those of the seeds that had not been immersed in any oily substance |
| CCCCCCCCCCCO [Example 17, undecyl alcohol] | higher than those of the seeds that had not been immersed in any oily substance | higher than those of the seeds that had not been immersed in any oily substance |
